The supplement of paper PMC10849652
Some of the results follow.

Chains of the proteins cited; added tags and fusions are not shown. Lines headed by an entry give the natural chain unless they say otherwise; changes in a name come on top.
UniProt Q8IZ73: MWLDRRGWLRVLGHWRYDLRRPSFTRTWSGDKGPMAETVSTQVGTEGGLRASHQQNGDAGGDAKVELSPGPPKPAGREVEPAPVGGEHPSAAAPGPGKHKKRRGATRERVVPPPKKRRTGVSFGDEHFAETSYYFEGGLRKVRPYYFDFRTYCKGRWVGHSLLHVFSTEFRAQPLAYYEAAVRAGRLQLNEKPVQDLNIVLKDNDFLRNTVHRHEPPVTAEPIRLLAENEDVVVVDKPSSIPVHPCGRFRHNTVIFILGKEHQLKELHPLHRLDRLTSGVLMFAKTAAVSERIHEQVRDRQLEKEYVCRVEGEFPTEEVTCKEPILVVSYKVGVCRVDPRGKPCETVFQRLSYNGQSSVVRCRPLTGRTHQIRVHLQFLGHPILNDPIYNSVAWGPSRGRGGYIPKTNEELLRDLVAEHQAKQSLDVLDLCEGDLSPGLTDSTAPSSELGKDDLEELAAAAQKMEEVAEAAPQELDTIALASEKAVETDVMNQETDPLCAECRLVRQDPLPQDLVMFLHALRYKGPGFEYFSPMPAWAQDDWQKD
UniProt O60942: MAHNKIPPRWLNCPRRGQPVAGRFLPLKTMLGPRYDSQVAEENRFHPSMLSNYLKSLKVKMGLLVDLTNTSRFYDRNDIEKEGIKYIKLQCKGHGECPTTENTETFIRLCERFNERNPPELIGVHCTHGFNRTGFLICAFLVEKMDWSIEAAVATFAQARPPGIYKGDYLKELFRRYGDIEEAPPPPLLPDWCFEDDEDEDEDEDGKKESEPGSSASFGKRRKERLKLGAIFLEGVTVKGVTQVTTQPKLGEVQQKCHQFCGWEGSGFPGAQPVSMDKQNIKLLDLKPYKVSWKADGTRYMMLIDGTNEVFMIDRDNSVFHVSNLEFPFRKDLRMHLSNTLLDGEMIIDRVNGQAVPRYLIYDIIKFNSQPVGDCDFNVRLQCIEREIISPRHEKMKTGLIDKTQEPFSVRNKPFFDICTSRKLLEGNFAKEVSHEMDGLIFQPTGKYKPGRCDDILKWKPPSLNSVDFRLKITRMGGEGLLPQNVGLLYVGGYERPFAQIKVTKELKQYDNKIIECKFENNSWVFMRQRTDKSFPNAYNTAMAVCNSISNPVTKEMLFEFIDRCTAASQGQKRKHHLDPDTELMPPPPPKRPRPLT
UniProt P31350, whole entry, looked up: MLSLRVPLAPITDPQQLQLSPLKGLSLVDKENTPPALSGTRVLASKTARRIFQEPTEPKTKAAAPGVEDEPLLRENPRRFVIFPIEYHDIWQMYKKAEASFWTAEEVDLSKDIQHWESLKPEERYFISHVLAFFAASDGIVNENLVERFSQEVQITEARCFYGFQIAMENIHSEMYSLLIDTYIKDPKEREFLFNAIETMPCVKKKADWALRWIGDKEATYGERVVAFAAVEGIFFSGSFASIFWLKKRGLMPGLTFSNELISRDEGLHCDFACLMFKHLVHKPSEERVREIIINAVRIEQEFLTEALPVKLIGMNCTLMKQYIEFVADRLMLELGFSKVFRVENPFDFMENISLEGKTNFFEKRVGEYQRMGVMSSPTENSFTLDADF
UniProt Q7L523, whole entry, looked up: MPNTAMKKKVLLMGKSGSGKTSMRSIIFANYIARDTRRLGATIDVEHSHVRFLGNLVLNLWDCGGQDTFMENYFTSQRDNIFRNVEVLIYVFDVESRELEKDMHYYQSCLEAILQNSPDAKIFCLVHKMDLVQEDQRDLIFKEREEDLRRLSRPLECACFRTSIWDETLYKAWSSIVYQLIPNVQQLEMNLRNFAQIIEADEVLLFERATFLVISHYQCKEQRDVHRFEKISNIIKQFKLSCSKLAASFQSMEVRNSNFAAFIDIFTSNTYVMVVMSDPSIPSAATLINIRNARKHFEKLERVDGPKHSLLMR
UniProt O75818: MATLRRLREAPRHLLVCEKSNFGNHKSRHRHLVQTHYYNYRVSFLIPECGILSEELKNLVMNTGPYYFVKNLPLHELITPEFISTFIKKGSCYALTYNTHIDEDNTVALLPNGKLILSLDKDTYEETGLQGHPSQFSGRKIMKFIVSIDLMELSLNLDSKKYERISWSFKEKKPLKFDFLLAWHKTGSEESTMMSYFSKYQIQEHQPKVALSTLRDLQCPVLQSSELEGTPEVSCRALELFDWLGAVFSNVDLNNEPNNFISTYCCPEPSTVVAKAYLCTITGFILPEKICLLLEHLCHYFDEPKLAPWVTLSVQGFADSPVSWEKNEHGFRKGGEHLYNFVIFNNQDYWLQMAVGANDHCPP
UniProt Q9P2E9: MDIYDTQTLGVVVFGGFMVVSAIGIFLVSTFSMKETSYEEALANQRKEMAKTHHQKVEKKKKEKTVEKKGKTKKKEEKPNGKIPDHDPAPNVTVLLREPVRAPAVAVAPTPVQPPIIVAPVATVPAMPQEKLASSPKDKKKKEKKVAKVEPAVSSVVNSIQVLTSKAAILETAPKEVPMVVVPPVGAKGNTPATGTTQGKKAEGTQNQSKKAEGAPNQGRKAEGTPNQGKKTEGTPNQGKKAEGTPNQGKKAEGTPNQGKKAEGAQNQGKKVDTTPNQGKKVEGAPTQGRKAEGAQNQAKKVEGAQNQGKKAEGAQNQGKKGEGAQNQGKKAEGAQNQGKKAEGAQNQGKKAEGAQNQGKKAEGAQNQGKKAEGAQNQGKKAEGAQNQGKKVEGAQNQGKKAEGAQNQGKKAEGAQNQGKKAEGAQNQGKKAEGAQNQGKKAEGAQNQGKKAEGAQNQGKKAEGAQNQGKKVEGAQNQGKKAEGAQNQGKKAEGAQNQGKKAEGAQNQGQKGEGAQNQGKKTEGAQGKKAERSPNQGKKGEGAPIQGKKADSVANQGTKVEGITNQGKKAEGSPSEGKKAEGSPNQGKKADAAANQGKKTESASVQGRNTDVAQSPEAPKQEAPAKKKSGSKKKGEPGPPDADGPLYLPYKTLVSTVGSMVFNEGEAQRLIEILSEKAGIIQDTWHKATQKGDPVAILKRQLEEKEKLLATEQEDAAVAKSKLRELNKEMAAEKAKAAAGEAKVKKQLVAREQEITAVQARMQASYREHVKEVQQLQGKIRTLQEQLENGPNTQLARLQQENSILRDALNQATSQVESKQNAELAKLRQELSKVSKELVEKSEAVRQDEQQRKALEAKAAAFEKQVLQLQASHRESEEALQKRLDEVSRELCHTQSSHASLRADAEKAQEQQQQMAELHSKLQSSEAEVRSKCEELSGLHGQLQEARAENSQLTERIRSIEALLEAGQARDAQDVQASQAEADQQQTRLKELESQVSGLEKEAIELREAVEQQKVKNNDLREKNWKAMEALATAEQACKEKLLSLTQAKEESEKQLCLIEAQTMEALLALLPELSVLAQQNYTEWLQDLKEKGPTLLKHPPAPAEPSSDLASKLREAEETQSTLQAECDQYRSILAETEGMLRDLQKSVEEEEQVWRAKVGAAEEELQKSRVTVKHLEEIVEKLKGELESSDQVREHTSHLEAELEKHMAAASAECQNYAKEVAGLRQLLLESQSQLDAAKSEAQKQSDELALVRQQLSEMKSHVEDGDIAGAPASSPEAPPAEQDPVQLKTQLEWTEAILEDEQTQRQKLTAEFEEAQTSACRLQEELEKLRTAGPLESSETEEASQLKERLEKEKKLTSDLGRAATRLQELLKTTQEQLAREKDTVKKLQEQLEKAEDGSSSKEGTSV
UniProt O75695: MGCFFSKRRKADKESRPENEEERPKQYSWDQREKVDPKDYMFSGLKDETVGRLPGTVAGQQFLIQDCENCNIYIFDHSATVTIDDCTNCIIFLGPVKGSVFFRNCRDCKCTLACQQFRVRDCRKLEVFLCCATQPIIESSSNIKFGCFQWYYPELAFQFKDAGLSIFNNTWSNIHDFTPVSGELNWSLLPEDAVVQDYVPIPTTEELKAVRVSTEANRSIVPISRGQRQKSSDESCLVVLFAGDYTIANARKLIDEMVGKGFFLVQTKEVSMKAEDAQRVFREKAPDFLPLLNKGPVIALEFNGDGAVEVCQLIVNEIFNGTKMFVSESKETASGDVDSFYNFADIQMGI
UniProt Q969K3: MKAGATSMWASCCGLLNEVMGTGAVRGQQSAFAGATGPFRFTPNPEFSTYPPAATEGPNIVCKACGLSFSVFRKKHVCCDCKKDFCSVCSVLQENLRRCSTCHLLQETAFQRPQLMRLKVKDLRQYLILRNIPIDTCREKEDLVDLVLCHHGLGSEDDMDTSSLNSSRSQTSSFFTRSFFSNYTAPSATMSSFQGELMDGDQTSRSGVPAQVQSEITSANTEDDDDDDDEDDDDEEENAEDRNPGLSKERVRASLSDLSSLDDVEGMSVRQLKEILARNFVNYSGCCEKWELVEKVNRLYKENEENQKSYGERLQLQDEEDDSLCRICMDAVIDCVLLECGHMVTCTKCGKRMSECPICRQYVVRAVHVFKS
UniProt Q9UBF6, whole entry, looked up: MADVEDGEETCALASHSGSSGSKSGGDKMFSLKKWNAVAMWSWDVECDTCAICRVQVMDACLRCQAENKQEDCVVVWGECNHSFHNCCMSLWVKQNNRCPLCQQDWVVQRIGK
UniProt Q86WX3: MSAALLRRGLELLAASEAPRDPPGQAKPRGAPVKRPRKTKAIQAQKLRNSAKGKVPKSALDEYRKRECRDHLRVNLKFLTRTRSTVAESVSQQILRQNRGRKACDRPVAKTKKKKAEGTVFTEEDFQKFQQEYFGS
UniProt Q9H6T3, whole entry, looked up: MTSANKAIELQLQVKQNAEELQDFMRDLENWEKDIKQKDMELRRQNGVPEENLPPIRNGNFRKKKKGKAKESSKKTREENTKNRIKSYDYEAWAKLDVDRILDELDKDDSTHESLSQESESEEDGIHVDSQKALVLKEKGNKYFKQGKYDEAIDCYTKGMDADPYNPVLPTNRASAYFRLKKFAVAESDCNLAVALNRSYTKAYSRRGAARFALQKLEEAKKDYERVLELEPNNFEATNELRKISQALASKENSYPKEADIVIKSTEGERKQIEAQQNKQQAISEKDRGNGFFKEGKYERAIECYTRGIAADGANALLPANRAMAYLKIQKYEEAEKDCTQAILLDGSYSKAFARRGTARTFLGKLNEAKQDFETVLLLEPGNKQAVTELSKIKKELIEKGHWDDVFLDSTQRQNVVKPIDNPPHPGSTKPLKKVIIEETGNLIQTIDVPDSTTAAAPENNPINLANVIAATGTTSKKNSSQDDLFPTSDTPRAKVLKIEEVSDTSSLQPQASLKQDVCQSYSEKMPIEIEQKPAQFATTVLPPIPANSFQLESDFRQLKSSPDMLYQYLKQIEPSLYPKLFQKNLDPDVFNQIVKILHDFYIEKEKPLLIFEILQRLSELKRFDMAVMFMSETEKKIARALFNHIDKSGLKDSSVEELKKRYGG
UniProt P04844: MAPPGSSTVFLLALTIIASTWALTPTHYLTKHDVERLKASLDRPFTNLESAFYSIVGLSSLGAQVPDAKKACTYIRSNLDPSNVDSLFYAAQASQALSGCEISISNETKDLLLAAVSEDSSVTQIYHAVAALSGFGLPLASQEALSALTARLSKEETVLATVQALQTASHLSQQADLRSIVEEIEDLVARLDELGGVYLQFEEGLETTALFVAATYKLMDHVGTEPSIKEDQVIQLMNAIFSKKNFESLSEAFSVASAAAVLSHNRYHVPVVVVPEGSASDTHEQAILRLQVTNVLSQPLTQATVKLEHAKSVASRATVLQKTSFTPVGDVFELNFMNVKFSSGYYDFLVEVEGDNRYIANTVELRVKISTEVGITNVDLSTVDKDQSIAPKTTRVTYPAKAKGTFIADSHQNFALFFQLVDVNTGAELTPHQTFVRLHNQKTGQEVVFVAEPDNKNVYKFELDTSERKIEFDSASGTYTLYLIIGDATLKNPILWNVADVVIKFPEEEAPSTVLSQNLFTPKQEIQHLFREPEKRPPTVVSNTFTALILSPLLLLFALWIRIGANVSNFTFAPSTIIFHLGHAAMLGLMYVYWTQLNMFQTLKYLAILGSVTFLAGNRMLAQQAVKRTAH
UniProt Q9H633: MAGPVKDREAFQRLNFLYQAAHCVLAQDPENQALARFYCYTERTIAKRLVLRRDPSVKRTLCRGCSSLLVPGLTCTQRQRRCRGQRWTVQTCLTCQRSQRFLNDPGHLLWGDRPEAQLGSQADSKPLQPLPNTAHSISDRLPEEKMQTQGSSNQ
UniProt Q9GZN7, whole entry, looked up: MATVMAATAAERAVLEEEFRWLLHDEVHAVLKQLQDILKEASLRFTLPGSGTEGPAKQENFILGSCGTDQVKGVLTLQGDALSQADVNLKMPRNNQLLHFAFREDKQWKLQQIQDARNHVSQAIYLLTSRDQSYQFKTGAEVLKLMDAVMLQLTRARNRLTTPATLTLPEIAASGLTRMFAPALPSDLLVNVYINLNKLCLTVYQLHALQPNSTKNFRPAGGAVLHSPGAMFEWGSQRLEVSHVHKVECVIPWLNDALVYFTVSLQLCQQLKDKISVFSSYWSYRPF

Compound: c1cn2cc(-c3ccc4cn[nH]c4c3)nc(Nc3ccc(N4CCOCC4)cc3)c2n1 [entospletinib]
Assay: log2 fold change, soluble protein after heating vs DMSO (PISA); higher = thermal stabilisation; K562 cells, 10 uM, 30 min; active = over 0.2 and 3.5 SD of the protein, either way, in both replicates (recomputed)
Summary of the method: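 Quantification of soluble protein used TMTpro 16plex LC-MS/MS, with channel sums equalised. Samples were the supernatant after 21,000xg for 90 min of pooled aliquots from K562 cells (2×10^6 cells/mL) treated with 10 μM compound for 30 min, heated for 3 min over 48°C-58°C, and extracted in PBS with 0.5% NP-40 at 4°C. Values, from duplicates, describe thermal stability against control samples on a log2 fold-change scale.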

RPL12 (UniProt P30050)
log2 fold change: inactive: 0.135

RPL35 (UniProt P42766)
log2 fold change: inactive: 0.116

RPL23 (UniProt P62829)
log2 fold change: inactive: 0.108

RPUSD2 (UniProt Q8IZ73)
log2 fold change: inactive: 0.011

RPL27 (UniProt P61353)
log2 fold change: inactive: 0.063

RPL15 (UniProt P61313)
log2 fold change: inactive: 0.111

RPS11 (UniProt P62280)
log2 fold change: inactive: 0.101

RNGTT (UniProt O60942)
log2 fold change: inactive: -0.073

RPLP0 (UniProt P05388)
log2 fold change: inactive: 0.08

RRM2 isoform 2 (UniProt P31350)
log2 fold change: inactive: 0.017

RPL10A (UniProt P62906)
log2 fold change: inactive: 0.152

RPL27A (UniProt P46776)
log2 fold change: inactive: 0.198

RPL36AL (UniProt Q969Q0)
log2 fold change: inactive: 0.095

RPL37A (UniProt P61513)
log2 fold change: inactive: 0.127

RRAGA (UniProt Q7L523)
log2 fold change: inactive: 0.083

RPP40 (UniProt O75818)
log2 fold change: inactive: 0.066

RRBP1 (UniProt Q9P2E9)
log2 fold change: inactive: 0.029

RP2 (UniProt O75695)
log2 fold change: inactive: 0.025

RPL14 (UniProt P50914)
log2 fold change: inactive: 0.203

RNF34 isoform 2 (UniProt Q969K3)
log2 fold change: inactive: 0

RNF7 (UniProt Q9UBF6)
log2 fold change: inactive: -0.068

RPS19BP1 (UniProt Q86WX3)
log2 fold change: inactive: 0.053

RPS23 (UniProt P62266)
log2 fold change: inactive: 0.09

RPS17 (UniProt P08708)
log2 fold change: inactive: 0.074

RPAP3 (UniProt Q9H6T3)
log2 fold change: inactive: 0.054

RPS8 (UniProt P62241)
log2 fold change: inactive: 0.131

RPL22 (UniProt P35268)
log2 fold change: inactive: 0.092

RPL10 (UniProt F8W7C6)
log2 fold change: inactive: -0.037

RPN2 (UniProt P04844)
log2 fold change: inactive: -0.011

RPP21 isoform 4 (UniProt Q9H633)
log2 fold change: inactive: 0.082

ROGDI (UniProt Q9GZN7)
log2 fold change: inactive: 0.098

RPL36 (UniProt Q9Y3U8)
log2 fold change: inactive: 0.03

RPL37 (UniProt P61927)
log2 fold change: inactive: 0.006

RPL35A (UniProt P18077)
log2 fold change: inactive: 0.037
